Drawing on patent publication US20200362033A1, this text covers binding for 1 molecule.

This test concerns the target human CD147-Fc fusion protein (Sino Biological Inc., Cat. 10186-H02H) (human) (UniProt P35613). The experiment in a line: ELISA, hybridoma supernatant on coated wells.

No constants are given. Whether binding was seen depends on the method and setting. Some results given as binding are weak or reduced against the parent protein; the word gives no strength.

B1: LN22R8 (antibody, V domains shown)
VH: QIQLVQSGPELKKPGETVKISCKASGYTFTNYGMNWVKQAPGKGLKWMGWINTYTGEPTYADDFKGRFAFSLETSASTAYLQINNLKNEDTATYFCARGGYGNYGAGAMDYWGQGTSVTVSS
VL: DIQMTQSPSSLSASLGERVSLTCRASLEISGFLSWLQQKPDGTIKRLIYAASILDSGVPKRFSGSRSGSDYSLTISSLESEDFADYYCLQYASYPWTFGGGTKLEIKR
With B1, the binding entry is “binds”.
